In publication PMC12040169 (PLOS Biology, 2025):
The other results are listed elsewhere or left out.

Test system: T1, CTL2-GFP (C. trachomatis L2/434/Bu, GFP-expressing)
T1 construct: L2/434/Bu, GFP-expressing
Set-up: species or system HeLa; Intracellular C. trachomatis growth in HeLa cells, bulk GFP fluorescence relative to DMSO
Conditions: bulk GFP, single well; 28.5 h, 10 µM; inhibitor

SMILES	% of control remaining [%]
CC(NC(=O)N1CCCN(Cc2ccccn2)CC1)c1cnn(C)c1 (stereo not drawn) [CBK307537]	99.281
O=C(CSCc1c(F)cccc1Cl)Nc1ccc(S(=O)(=O)N2CCCCCC2)cc1 [CBK268497]	97.1677
CCCCN(C)c1nccnc1-c1cccc(O)c1 [CBK037652]	103.862
CC1Cc2cc(C(=O)N3CCCCC3CCN3CCCC3)ccc2O1 (stereo not drawn) [CBK282094]	124.54
OCCN1CC2(CCN(Cc3ccc4ccccc4c3)CC2)c2ccccc21 [CBK131529]	138.326
CSc1ccc(-c2cnc(N)c3ncccc23)cc1 [CBK067584]	118.255
Nc1ncccc1OCCOc1cccnc1N [CBK022067]	136.672
O=C1CC(N2CCN(Cc3ccc4c(c3)OCO4)CC2)C(=O)N1c1ccc(Cl)cc1 (stereo not drawn) [CBK074402]	121.318
C[C@]12CN(CCc3ccccc3)C[C@H]1NC(=O)c1ccccc1C2=O [CBK284704]	147.343
C[C@@H](Nc1cncc(-c2cccc(N)c2)n1)c1ccccc1 [CBK065273]	180.694
O=C(NC1CC1)C1(Cc2ccccc2-c2ccncc2)CCOCC1 [CBK284785]	108.312
COc1ccc2oc(C(=O)N(C)CC(C)OC)c(C)c2c1 (stereo not drawn) [CBK282037]	130.256
O=C(C1CCN(S(=O)(=O)c2ccccc2)CC1)N1CCN(Cc2ccc3c(c2)OCO3)CC1 [CBK265713]	198.797
CC(=O)Nc1ccc(NCc2nc(CC(C)C)no2)c(C(F)(F)F)c1 [CBK305799]	89.814
COc1ccc(NC2=N[C@H]3[C@@H](O)[C@H](O)C[C@H](C(=O)N(C)Cc4ccccc4)[C@H]3S2)cc1 [CBK288950]	87.9999
CC(CN(C)C(=O)c1nc(=O)[nH][nH]1)Oc1ccc(Cl)c(Cl)c1 (stereo not drawn) [CBK306471]	100.974
COc1cccc(-n2c(C)nnc2C2(OC(C)=O)CCN(CCc3ccccc3)CC2)c1 [CBK016371]	93.4497
O=C(CN1CCn2ccnc2C1)N(Cc1ccccc1F)C1CC1 [CBK303995]	103.112
Cc1ccc(C(=O)N/C(=C\c2cccc([N+](=O)[O-])c2)c2n[nH]c(=S)[nH]2)cc1 [CBK263114]	116.201
O=C(CCN1CCCC12CCc1[nH]c3ccccc3c1C2)c1ccc(F)cc1 (stereo not drawn) [CBK084593]	90.6548
CCOC(=O)CCC(=O)n1c2ccccc2c2ccccc21 [CBK001170]	121.788
CC(=O)NCCN1CC[C@H]2CN(C(=O)COc3ccccc3)CC[C@H]2CC1=O [CBK288783]	129.984
COc1cc(NC(=S)NCc2ccc(S(N)(=O)=O)cc2)cc(OC)c1 [CBK264935]	119.805
COc1ccc(CC(=O)N2CCC(c3cc4ncccc4[nH]3)CC2)cc1 [CBK283386]	124.637
CC(C)(C)c1cc(-n2c(-c3cccnc3)nc3ccccc32)cc(C(C)(C)C)c1O [CBK262907]	83.2742
Cc1nc(NS(=O)(=O)c2ccccc2)sc1NC(=O)Nn1cnnc1 [CBK266699]	167.783

SMILES	% of control remaining [%]
CN(C)CCN(Cc1ccccc1)Cc1ccc(C(F)(F)F)cc1 [CBK261927]	97.3034
O=S(=O)(c1ccc(-c2ccccc2)cc1)n1ccc2cc(N3CCN(Cc4ccccc4)CC3)ccc21 [CBK001388C]	81.101
CC(=O)N1Cc2cc(C)ccc2OC2(CCCN(CC3CC3)C2)C1 (stereo not drawn) [CBK285104]	112.679
CCOc1ccc(CC(=O)N2CCCc3c(cnn3C)C2)cc1 [CBK285325]	130.413
CCc1nc2ccc(C(=O)NC3CCN(Cc4ccccc4)CC3)cn2c1N(C)CC [CBK145488]	95.6277
Cc1ccc(CN(C2CCN(C)CC2)S(=O)(=O)c2ccccc2F)cc1 [CBK160444T]	144.43
O=c1[nH]c(/C=C\c2cccc(OCCOc3ccccc3)c2)c([N+](=O)[O-])c(=O)[nH]1 [CBK266840]	103.088
CN1CCN(CCOC(=O)NCc2ccnc3ccccc23)CC1 [CBK200148]	96.5687
Cn1cc(C2CCCCCN2S(=O)(=O)c2ccc3[nH]c(=O)[nH]c(=O)c3c2)cn1 (stereo not drawn) [CBK286406]	118.406
O=C(NCc1ccncc1)c1cc(-c2ccc(Cl)cc2)on1 [CBK116559]	117.331
Cc1ccc(NC(=O)N(Cc2ccc(-c3ccccc3)cc2)CC(C)(C)CN)c(C)c1 [CBK002428C]	63.476
Cc1nn(C)c(N2CCNCC2)c1NC(=O)COc1ccccc1 [CBK050249T]	52.1366
Cc1cc(CN2CCOCC2)oc1C(=O)O [CBK263239C]	104.305
O=C(O)C1CCCCC1C(=O)NCCCN1CCCC1=O (stereo not drawn) [CBK286914]	101.523
Cc1ccccc1S(=O)(=O)Nc1cc(CN2C[C@H](C)NC[C@H]2C)c2occc2c1 [CBK107210T]	112.997
CC(=O)NCC1CC(c2ccc(OC(C)=O)c(Cl)n2)=NO1 (stereo not drawn) [CBK010396]	100
COc1ccc(Sc2cccc(C(F)(F)F)n2)cc1OC [CBK093769]	94.9932
CCOC(=O)CN1CCC(Oc2nccnc2OCCN2CCOCC2)CC1 [CBK082929]	115.827
CCOC(=O)CNC(=S)N[C@H]1CC[C@@]2(c3cccnc3)CCN(Cc3ccccc3)[C@H]2C1 [CBK028453]	92.97
Cc1ccc(C(=O)Nc2ccc3[nH]ccc3c2)cc1Cl [CBK159677]	114.608
Nc1nc2n(n1)C1(CCCCC1)C1=C(CCCC1)N2 [CBK288219]	136.556
CN(C)c1nc(N(C)C)n(C(=O)c2cccs2)n1 [CBK019805]	122.702
NS(=O)(=O)c1ccc(C(=O)N2CCC3(CCN(C(=O)Cc4c[nH]c5ccccc45)C3)C2)cc1 (stereo not drawn) [CBK131425]	114.045
Cc1cc(C(=O)N2CCC(Cn3cncn3)(C3CCCCC3)CC2)n[nH]1 [CBK136786]	122.803
c1ccc2sc([C@H]3CCNC3)nc2c1 [CBK289389]	133.015
COc1ccc(N2CCN(c3cc(-c4ccc(CCC(=O)O)cc4)ncn3)CC2)cc1OC [CBK091030]	78.9561

SMILES	% of control remaining [%]
COc1cc(F)cc(OC2CCNCC2)c1NC(=O)/C=C/c1cccnc1 [CBK050344T]	88.8167
O=C(c1cccnc1)N1CCN(Cc2ccc([N+](=O)[O-])cc2)CC1 [CBK263026]	92.8116
O=C(Nc1ccc(-c2ccccc2)cc1)c1cccc(S(=O)(=O)NCC2CCCO2)c1 (stereo not drawn) [CBK296994]	123.968
CCOC(=O)c1sc(NS(=O)(=O)c2ccc(-c3ccccc3)cc2)nc1C [CBK003784]	89.3217
O=[N+]([O-])c1cccc(-c2csc(N/N=C\c3cccc(O)c3)n2)c1 [CBK263418]	124.721
Cc1ccc(Nc2nc(N/N=C/c3cccc4ccccc34)nc(N3CCC(Cc4ccccc4)CC3)n2)cc1 [CBK262101]	100
Cn1cncc1CN1CCCC(c2cc3cccnc3[nH]2)C1 (stereo not drawn) [CBK284948]	125.466
CSCCc1[nH]c(SCC(=O)Nc2cccc3ccccc23)nc1C [CBK266097]	172.204
CCCN1CC(NC(=O)c2cc(COc3cccc(F)c3)[nH]n2)CC1=O (stereo not drawn) [CBK306912]	136.358
COc1ccc(S(=O)(=O)NCCCN2CCOCC2)c(C)c1C [CBK266519]	155.301
c1csc(-c2ccn3c(n2)nc2ccccc23)c1 [CBK287976]	100
Cc1cc(Cl)ccc1OCCCC(=O)Nc1sc2c(c1C(N)=O)CCCCCC2 [CBK265390]	104.602
O=S(=O)(c1ccc(C(F)(F)F)cc1)N1CCC2(CC1)OCCO2 [CBK044520]	135.379
Cc1cc(C)n(C2CCN(Cc3c(C)nc4ccccn34)CC2)n1 [CBK281614]	116.78
Cc1nc(CCCn2cnc3nccnc3c2=O)sc1C [CBK306962]	166.041
Nc1ccc2nc(CCCCCC(=O)O)sc2c1 [CBK016399]	94.4706
CCC(Sc1nc(C)cc(C)n1)C(=O)N1c2ccccc2Sc2ccccc21 (stereo not drawn) [CBK263018]	81.5981
O=C(Cn1ccc2ccnc(-c3cccs3)c21)N1CCOCC1 [CBK284729]	160.948
Cc1ccc([N+](=O)[O-])cc1NC(=O)c1cc(S(=O)(=O)N(C)C)c(Cl)cc1Cl [CBK266764]	115.644
Cn1cc(Cl)c(C2CCCCCN2S(=O)(=O)c2ccc3[nH]c(=O)[nH]c(=O)c3c2)n1 (stereo not drawn) [CBK286408]	127.829
Nc1ncnc(NCCC(c2ccccc2)c2ccccc2)c1[N+](=O)[O-] [CBK267294]	118.756
Nc1ncc(-c2cccc3cccnc23)nc1N1CCOCC1 [CBK063383]	101.852
Cn1cc(-c2ncc(OCCn3cccc3)nc2N)cn1 [CBK145170]	122.668
c1ccc(-c2cn3ccnc3c(NCC3CCOCC3)n2)cc1 [CBK037356]	186.206
COc1ccc(OC)c(NC(=O)c2c(NCc3ccncc3)sc3c2CCC3)c1 [CBK266007]	139.837
O=c1[nH]cc(-c2ccccc2)cc1CNCC1Cc2ccccc2O1 (stereo not drawn) [CBK284772]	137.001

Molecules from the list above with a furan ring, fused or not (3):
SMILES	% of control remaining [%]
COc1ccc2oc(C(=O)N(C)CC(C)OC)c(C)c2c1 (stereo not drawn) [CBK282037]	130.256
Cc1cc(CN2CCOCC2)oc1C(=O)O [CBK263239C]	104.305
Cc1ccccc1S(=O)(=O)Nc1cc(CN2C[C@H](C)NC[C@H]2C)c2occc2c1 [CBK107210T]	112.997
